Results deposited as PubChem BioAssay AID652243 (Drosophila RNAi Screening Center, 2013)
Aim: 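Knock-downs that decrease or increase androgen receptor reporter signal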 (primary screen). Cell system: Drosophila S2R+ cells. Reagents: long dsRNA against Drosophila genes. Time to read-out: 72 h (48 h, then 24 h hormone). Treatment: synthetic androgen R1881 at 10 nM for 24 h. Measurement: 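Firefly light from an androgen-responsive reporter and Renilla control light per well, raw and unnormalised, for each of two replicates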. Direction: firefly reporter light: higher = more light from androgen-responsive reporter; Renilla control light: higher = more constitutive control signal (cell number, transfection). Rule for the call: 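Hit when the log firefly-to-Renilla ratio dropped or increased by a fixed fold versus the mean of GFP or LacZ controls across duplicate plates; lowering cut given as 1.5 and as 3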. Meaning of the calls: active = hit: reporter lowered or raised; inactive = no hit.
In all, the deposit lists about 24,000 reagents; this is an unselected part of those that have a named target and a result. Of all reagents, 246 (1%) were called active. 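Plates not normalised; calls are printed but the firefly/Renilla ratio behind them is not deposited; fold cut for lowering reported inconsistently.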 The raw values are shown without normalisation. Reagents against one gene are numbered here. Names joined by + are all predicted targets of the reagent. The record does not give: the amount of reagent.

gene knocked down	reagent no.	firefly reporter light, replicate 1	firefly reporter light, replicate 2	Renilla control light, replicate 1	Renilla control light, replicate 2	Call
Cyp28a5	1	7.48e5	8.96e5	1.47e6	2.71e6	inactive
Slbp	1	1.03e5	96916	2.19e6	2.35e6	active
trk	1	99156	1.25e5	8.59e5	9.24e5	inactive
CG31673	1	7.19e5	7.96e5	2.77e6	2.04e6	inactive
Cad89D	1	1.32e5	92719	2.38e6	2.18e6	inactive
Nubpl	1	5.18e5	4.33e5	2.69e6	1.95e6	inactive
Mabi	1	5.61e5	7.79e5	1.76e6	1.67e6	inactive
Mabi	2	4.34e5	2.79e5	1.04e6	1.33e6	inactive
CG14573	1	3.03e5	2.55e5	2.72e6	2.82e6	inactive
CG14573	2	7.06e5	6.94e5	1.01e6	1.20e6	inactive
CG31928	1	8.39e5	9.68e5	2.29e6	2.34e6	inactive
CG17193	1	2.42e5	3.20e5	3.07e6	3.31e6	inactive
Cyp311a1	1	5.55e5	5.09e5	4.04e6	3.70e6	inactive
Cyp311a1	2	6.30e5	5.04e5	7.57e5	4.83e5	inactive
Galk	1	7.20e5	1.10e6	1.29e6	1.05e6	inactive
Galk	2	3.99e5	3.27e5	8.51e5	7.52e5	inactive
Galk	3					inactive
CadN2	1	1.68e5	1.97e5	2.62e6	3.36e6	inactive
CadN2	2	2.53e5	2.62e5	2.59e6	2.90e6	inactive
CadN2	3	2.21e5	2.31e5	2.43e6	2.25e6	inactive
CG14635	1	3.05e5	4.07e5	3.11e6	3.37e6	inactive
CG14635	2	3.81e5	4.08e5	1.01e6	1.36e6	inactive
dpr13	1	1.11e5	1.58e5	1.45e6	1.45e6	inactive
dpr13	2	74940	78985	1.50e6	1.50e6	inactive
dpr13	3	2.98e5	3.30e5	2.61e5	3.44e5	inactive
bigmax	1	1.54e5	85452	9.51e5	9.01e5	inactive
bigmax	2	2.48e5	2.12e5	4.30e5	5.29e5	inactive
Fatp3	1	2.16e5	2.06e5	1.07e6	7.94e5	inactive
Fatp3	2	7.87e5	6.58e5	1.27e6	1.02e6	inactive
Ugt304A1	1	1.34e5	1.32e5	1.50e6	1.81e6	inactive
Ugt304A1	2	2.50e5	2.70e5	2.86e5	3.88e5	inactive
Mitf	1	3.88e5	3.60e5	5.69e6	3.97e6	inactive
Mitf	2	3.88e5	3.63e5	2.76e6	2.16e6	inactive
Mitf	3	7.38e5	8.78e5	1.31e6	1.82e6	inactive
DNaseII	1	23027	28631	2.84e5	4.06e5	inactive
CG31457	1	5.18e5	6.62e5	1.79e6	2.27e6	inactive
CG31457	2	4.40e5	6.80e5	1.23e6	1.25e6	inactive
CG43367 + asRNA:CR32252	1	5.19e5	5.68e5	9.19e5	1.43e6	inactive
CG15710	1	63319	80104	1.33e6	1.33e6	inactive
RN-tre	1	1.19e5	1.22e5	3.64e6	3.64e6	inactive
RN-tre	2	5.56e5	1.10e6	1.15e6	1.52e6	inactive
CG13071	1	2.82e5	2.95e5	3.07e6	2.51e6	inactive
Prp38	1	5.82e5	7.23e5	8.94e5	1.21e6	inactive
Prp38	2	4.56e5	4.85e5	1.49e6	1.16e6	inactive
Arl4	1	2.45e5	2.53e5	2.18e6	3.27e6	inactive
CG5399	1	93809	1.24e5	1.54e6	2.27e6	inactive
CG5399	2	5.96e5	5.19e5	8.63e5	9.33e5	inactive
Mlc-c	1	1.01e5	75579	6.85e5	3.47e5	inactive
Mlc-c	2	2.64e5	2.36e5	7.06e5	4.28e5	inactive
CG31710	1	2.48e5	2.70e5	8.45e5	4.21e5	inactive
CG31710	2	5.49e5	9.95e5	1.07e6	1.53e6	inactive
CG31710	3	3.66e5	3.53e5	1.26e6	1.04e6	inactive
HPS4	1	65388	50570	5.80e5	5.80e5	inactive
Vhl	1	1.51e5	1.05e5	1.36e6	1.08e6	inactive
Vhl	2	3.42e5	6.04e5	1.10e6	2.09e6	inactive
Rpt6	1	88981	1.06e5	7.61e5	8.79e5	inactive
Rpt6	2	7.06e5	5.39e5	1.44e6	1.13e6	inactive
Hsp70Bb + Hsp70Bbb	1	4.43e5	1.05e6	9.67e5	1.98e6	inactive
CG12126	1	3.08e5	3.58e5	2.56e6	2.32e6	inactive
Qsox1	1	6.10e5	8.81e5	1.27e6	2.17e6	inactive
Qsox1	2	4.25e5	5.05e5	1.39e6	1.07e6	inactive
Pcyt1	1	8.57e5	1.12e6	1.11e6	1.44e6	inactive
Pcyt1	2	5.56e5	2.80e5	1.82e6	9.43e5	inactive
ALiX	1	58967	86857	8.09e5	7.67e5	inactive
ALiX	2	5.42e5	4.89e5	8.57e5	5.50e5	inactive
TpnC41C	1	2.82e5	3.67e5	1.96e6	1.95e6	inactive
SMSr	1	7.78e5	4.91e5	1.24e6	1.32e6	inactive
SMSr	2	1.86e5	1.17e5	1.94e6	1.32e6	inactive
Als2	1	35878	42032	3.47e5	3.39e5	inactive
CG16717	1	2.30e5	2.44e5	2.65e6	2.68e6	inactive
CG16717	2	7.13e5	7.42e5	1.12e6	1.12e6	inactive
CG31717	1	1.55e5	1.40e5	5.43e5	4.89e5	inactive
CG12942	1	1.01e6	1.06e6	1.01e6	1.43e6	inactive
CG12942	2	6.47e5	5.42e5	1.05e6	7.42e5	inactive
